These are yes or no findings as the source states them, for the method shown.

Amino acid sequences for entries named in this document (tags omitted). Residues count along the entry.
UniProt Q6UXN8, residues 57-241: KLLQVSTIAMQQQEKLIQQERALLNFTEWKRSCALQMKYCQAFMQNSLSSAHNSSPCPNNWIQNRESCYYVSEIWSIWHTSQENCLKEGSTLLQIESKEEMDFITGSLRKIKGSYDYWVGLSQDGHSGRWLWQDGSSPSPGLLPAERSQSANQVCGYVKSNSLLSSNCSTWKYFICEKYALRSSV

Experiment [1] deals with human DNGR-1 ECD (extracellular domain of human DNGR-1) (human) (UniProt Q6UXN8). Description: condition: only with DTT (reducing SDS-PAGE), in PBS; reducing SDS-PAGE and Western blot; purified ECD diluted into PBS (neutral conditions); DTT in Laemmli buffer, boiled; anti-FLAG detection; both purified.
The target is the same in experiment [2]. Briefly: condition: only with DTT or β-ME (reducing SDS-PAGE, neutral conditions); reducing SDS-PAGE and Western blot; supernatants with FLAG-tagged ECD proteins, neat or diluted into PBS (neutral conditions); reduced with DTT (100 mM) or β-ME in Laemmli buffer; anti-FLAG detection. (In western blotting, separated proteins are transferred to a membrane and probed.)

Consider “human DNGR-1 ECD (extracellular domain of human DNGR-1) (from UniProt Q6UXN8 57-241) (domain or fragment)”, for which the binding entry in experiment [1] and in experiment [2] was “no binding” throughout.

(Values after PMC5109244.)
